Record: PubChem BioAssay AID652243 (Drosophila RNAi Screening Center, 2013)
Purpose: 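Fly genes required for human androgen receptor driven transcription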 (primary screen). System: Drosophila S2R+ cells. Reagents: long dsRNA against Drosophila genes. Duration: 72 h (48 h, then 24 h hormone). Conditions: synthetic androgen R1881 at 10 nM for 24 h. Detection: 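Per-well raw luminescence of the androgen-driven firefly reporter and of the Renilla control, two replicates each, without normalisation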. Scale: firefly reporter light: higher = more light from androgen-responsive reporter; Renilla control light: higher = more constitutive control signal (cell number, transfection). Call rule: 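Hit when the log firefly-to-Renilla ratio dropped or increased by a fixed fold versus the mean of GFP or LacZ controls across duplicate plates; lowering cut given as 1.5 and as 3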. Calls: active = hit: reporter lowered or raised; inactive = no hit.
In all, the deposit lists about 24,000 reagents; this is a random part of those with a known target gene and a result. Over the whole deposit, 246 (1%) got an active call. 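Plates not normalised; calls are printed but the firefly/Renilla ratio behind them is not deposited; fold cut for lowering reported inconsistently.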 Raw values are not corrected between plates. The record does not give: the amount of reagent.

Target gene,amplicon,"firefly reporter light, replicate 1","firefly reporter light, replicate 2","Renilla control light, replicate 1","Renilla control light, replicate 2",outcome
CG9254,DRSC01969,2.58e5,2.63e5,1.40e6,1.93e6,inactive
CR31427,DRSC22675,7.07e5,6.10e5,1.41e6,1.09e6,inactive
CR31427,DRSC26472,1.24e5,1.25e5,1.50e5,1.69e5,inactive
CG15019,DRSC08473,1.37e5,1.80e5,2.21e6,2.28e6,inactive
CG31862,DRSC01245,99678,1.14e5,2.40e5,3.17e5,inactive
Sec24AB,DRSC06478,7.21e5,7.19e5,2.18e6,2.40e6,inactive
Sec24AB,DRSC25940,3.31e5,3.66e5,1.37e6,1.13e6,inactive
EAChm,DRSC10010,1.41e5,1.68e5,1.90e6,2.01e6,inactive
CG10631,DRSC02081,1.08e6,6.65e5,1.86e6,2.31e6,inactive
GluRIA,DRSC11176,2.68e5,2.40e5,3.32e6,2.56e6,inactive
CG34012,DRSC38846,3.09e5,3.05e5,1.02e6,9.95e5,inactive
Nup58,DRSC16235,2.49e5,1.39e5,3.53e6,2.59e6,inactive
Nup58,DRSC27863,6.30e5,4.02e5,2.91e6,1.39e6,inactive
CG14627,DRSC18630,59716,67203,2.15e6,1.57e6,inactive
CG32436,DRSC11683,1.31e5,1.82e5,1.37e6,1.85e6,inactive
CG32436,DRSC11796,1.89e5,1.92e5,1.54e6,1.50e6,inactive
CG9521,DRSC20196,4.98e5,4.36e5,4.31e6,4.45e6,inactive
Txl,DRSC11310,84096,72674,1.61e6,1.34e6,inactive
CG30393,DRSC04253,3.99e5,3.38e5,1.77e6,1.46e6,inactive
CG30393,DRSC24833,7.12e5,6.89e5,6.80e5,7.45e5,inactive
CG1738,DRSC19772,3.00e5,3.56e5,2.93e6,3.34e6,inactive
CG1738,DRSC29312,9.11e5,7.36e5,1.35e6,1.48e6,inactive
CG4098,DRSC10399,2.73e5,1.93e5,3.00e6,2.63e6,inactive
HPS4,DRSC06906,65388,50570,5.80e5,5.80e5,inactive
eys,DRSC00402,81236,74478,7.44e5,5.60e5,inactive
eys,DRSC00403,72787,89054,5.31e5,6.22e5,inactive
eys,DRSC00695,9.23e5,7.38e5,3.94e6,2.41e6,inactive
CG7220,DRSC05235,1.70e5,2.36e5,3.79e5,5.87e5,inactive
CG7220,DRSC07018,3.15e5,3.23e5,1.82e6,2.25e6,inactive
CG7220,DRSC26138,3.00e5,2.68e5,7.74e5,6.30e5,inactive
Spt6,DRSC18836,46381,39802,4.35e5,2.73e5,inactive
CG13579,DRSC04215,1.76e5,2.24e5,1.15e6,1.41e6,inactive
CG13579,DRSC25603,1.07e6,1.18e6,1.38e6,1.37e6,inactive
Teh4,DRSC08457,1.89e5,1.29e5,2.73e6,1.63e6,inactive
CG12480,DRSC19460,4.58e5,4.37e5,2.35e6,2.86e6,inactive
CG12480,DRSC27987,8.02e5,7.22e5,2.03e6,1.36e6,inactive
Cpr30F,DRSC02908,8.66e5,6.91e5,1.98e6,2.45e6,inactive
Cpr30F,DRSC25531,7.06e5,7.82e5,9.55e5,7.96e5,inactive
Abi,DRSC14099,70727,1.05e5,7.14e5,8.55e5,inactive
Abi,DRSC27275,3.37e5,2.79e5,4.75e5,4.21e5,inactive

5 successive reagents from above, for reference:
Target gene,amplicon,"firefly reporter light, replicate 1","firefly reporter light, replicate 2","Renilla control light, replicate 1","Renilla control light, replicate 2",outcome
CG30393,DRSC24833,7.12e5,6.89e5,6.80e5,7.45e5,inactive
CG1738,DRSC19772,3.00e5,3.56e5,2.93e6,3.34e6,inactive
CG1738,DRSC29312,9.11e5,7.36e5,1.35e6,1.48e6,inactive
CG4098,DRSC10399,2.73e5,1.93e5,3.00e6,2.63e6,inactive
HPS4,DRSC06906,65388,50570,5.80e5,5.80e5,inactive
